Drawing on US20100129346A1 (G2 INFLAMMATION, published 2010), this text covers binding for two molecules.

Results are given in words; binding and its absence hold for the method and conditions named.

The assay addresses 14. … (scrambled). In words: peptide ELISA, biotinylated peptide on streptavidin-coated plates [b].

B1: MAb 7H3 (antibody, V domains shown)
VH: EVKLEESGGGLVQPGGSMKLSCVASGFTFSDAWMDWVRQSPEKGLEWVAGIRNRANNHATYYVASVKGRFTVSRDDSKSSVYLQMNSLRAEDAGIYYCTRGDGYFFDYWGQGTTLTVSS
VL: DVVLTQTPLSLSVSLGDQASISCRSGQSLVHSNGNTYLHWYLQKPGQSSKLLIYKVSNRLSGVPDRFSGSGSGTDFTLKISRVEAEDLGVYFCSQTTHVPPTFGGGTKLEIK
notes: Mouse monoclonal antibody from a hybridoma (ECACC 06081802); also called 7H3-N9
On to B1, for which the binding entry is reported as “no binding (tested: 2.5 µg/ml (not on the sheet))”.

B2: MAb 8G7 (antibody, V domains shown)
VH: DIQLQESGPGLVKPSQSLSLTCSVTGYSITSGHYWNWIRQLPGNKMEWMGHISNDGSNRYNPSLKNRISITRDTSKNQFFLKLNSVTTEDTATYYCALFYFAYASFAYWGQGTLVTVSA
VL: DVVMTQTPLSLPVSLGDQASISCRSSQSLLHSNGNTYLHWYLQKPGQSPKLLIYKVSTRFSGVPDRFSGSGSGADFTLQISRVEAEDLGVYLCSQSTHVPPTFGAGTKLVLT
notes: Mouse monoclonal antibody from a hybridoma (ECACC 06081803); also called 8G7-M6
B2: the binding result is given as “no binding (tested: 2.5 µg/ml (not on the sheet))”.
